# Results reported in doi:10.1101/2025.05.25.656038.
# The chains behind the UniProt entries cited, without tags or fusion partners. Where a name states a change or a piece, a line headed by the entry shows the natural chain unless it says otherwise.
# UniProt P12956: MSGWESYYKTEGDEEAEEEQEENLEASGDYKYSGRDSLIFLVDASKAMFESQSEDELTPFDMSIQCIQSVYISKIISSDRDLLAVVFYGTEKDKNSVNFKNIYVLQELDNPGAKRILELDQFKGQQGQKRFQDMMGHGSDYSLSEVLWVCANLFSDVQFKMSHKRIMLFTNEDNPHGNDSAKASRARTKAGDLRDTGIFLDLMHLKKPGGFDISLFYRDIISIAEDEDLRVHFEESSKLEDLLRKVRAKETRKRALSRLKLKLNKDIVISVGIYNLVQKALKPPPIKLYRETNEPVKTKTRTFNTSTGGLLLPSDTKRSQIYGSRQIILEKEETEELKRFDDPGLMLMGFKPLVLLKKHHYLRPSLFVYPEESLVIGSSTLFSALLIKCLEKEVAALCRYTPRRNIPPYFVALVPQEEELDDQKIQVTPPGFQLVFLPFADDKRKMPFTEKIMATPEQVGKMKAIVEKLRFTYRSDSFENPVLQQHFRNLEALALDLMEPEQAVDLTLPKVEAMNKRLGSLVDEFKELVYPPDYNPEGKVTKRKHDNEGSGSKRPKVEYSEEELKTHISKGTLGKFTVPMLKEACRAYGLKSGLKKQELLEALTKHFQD
# Results are given in words; binding and its absence hold for the method and conditions named. Some entries that bind do so weakly or less than the wild type.
# Target: short-range (SR) synaptic complex (Ku70/80, XLF, and XRCC4-LigIV) assembled on DNA (UniProt P12956)
# Assay: pull-down
substance,measurement,value
Polynucleotide kinase-phosphatase (PNKP) (from UniProt Q96T60 1-521) (enzyme),binding,binds
